# Results of single-concentration screens

A: 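Whole-parasite assay of Trypanosoma brucei over 72 hours; the read-out is not stated. Tested at 30 µM. Higher reads as stronger inhibition (inferred: compounds with an IC50 in retests scored well above the rest). Values scatter widely below zero; nearly all retest evidence comes from the higher of the two concentrations used. Of about 64,000 compounds tested this way, about 940 (1.5%) reached 50% or more in at least one test.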
B: 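Assay of Toxoplasma gondii numbers, read through their beta-galactosidase reporter with a colour substrate. Tested at 10 µM. The record gives no direction; the compounds picked for IC50 retests had high values, so higher reads as fewer parasites. Size under these conditions: about 67,000 compounds, about 260 of them at 50% or above in at least one test.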

Results are given as percent effect.
The record does not define 0% and 100%; most values in the screen are far below 50% and negative numbers occur (in some assays of this library far below -100).
Compounds were drawn at random from those tested, without regard to their results.
A dash means the value is not listed here; it may have been measured.

| # | structure | A | B |
|---|---|---|---|
| 1 | `O=C(NCCc1cnccn1)C1(N2CCCCC2)Cc2ccccc2C1` | -17.89 | -8.305 |
| 2 | `COCCNC(=O)NC1(c2nc(C)no2)CCCCC1` | 13.81 | 14.93 |
| 3 | `CC(C)(C)c1nccc(N2CCC(OCCN3CCCCC3)C2)n1` (stereo not drawn) | - | -1.871 |
| 4 | `COCCN1CCC(c2cncc(-c3cccc(Cl)c3)n2)CC1` | 41.26 | -0.8929 |
| 5 | `COc1ccc(CN2CC(n3cccn3)C2)cc1F` | -7.772 | 8.376 |
| 6 | `O=C1CCCN1CCCNCc1cc(O)c2cccc(F)c2n1` | -8.893 | -1.093 |
| 7 | `[H][C@@]12CN(Cc3cccnc3)C[C@]1([H])CN(C(=O)Cc1cccc(F)c1)C2` | -7.87 | -15.5 |
| 8 | `COc1ccccc1CN(C)c1nc2c(cnn2C)c(=O)[nH]1` | 11.33 | 1.123 |
| 9 | `CN1C(=O)CC(C(=O)O)C12CCN(Cc1ccc(Cl)c(Cl)c1)CC2` (stereo not drawn) | -97.29 | 10.99 |
| 10 | `CN(C)c1ncnc2c1CCN(c1cccc(F)c1)CC2` | -19.02 | 4.782 |
| 11 | `CCOCCN1CCN(CCc2ccc3c(c2)CCO3)CC1` | -70.84 | 17.89 |
| 12 | `O=C(CCCNC(=O)C1CCCO1)Nc1ccc(Cl)cc1` (stereo not drawn) | -34.33 | 23.23 |
| 13 | `CCN(CC)S(=O)(=O)N1CCCC(c2ccc(C(=O)O)cc2)C1` (stereo not drawn) | -18.45 | -3.001 |
| 14 | `Cc1cc2c(cc1NC(=O)NC(C)(C)C)OCO2` | -11.59 | -1.097 |
| 15 | `[H][C@@]12C[C@@H](OCc3ccccn3)CN1CCN(C(=O)c1cnccn1)C2` | -16.32 | -0.3205 |
| 16 | `COc1c(F)cc(CN2CCC3(CC2)C(C(=O)O)CC(=O)N3C)cc1Cl` (stereo not drawn) | -95.97 | -1.803 |
| 17 | `CC(C)CNC(=O)COc1cccc[n+]1[O-]` | -16.43 | 19.4 |
| 18 | `CN1CCC(N(C)C(=O)Nc2ccc(Cl)cc2)CC1` | - | -2.874 |
| 19 | `CC(C)COc1cccc(-c2nc3c([nH]2)CCNC3)c1` | -4.571 | 4.313 |
| 20 | `CC1COCCN1C(=O)c1cnccn1` (stereo not drawn) | -38.59 | 10.37 |
| 21 | `O=C(O)C(F)(F)F.[H][C@@]12C[C@H](C(=O)NCC(C)C)[C@@]([H])(CN(CCC(C)C)C1)O2` | -52.54 | 3.613 |
| 22 | `CN(C)Cc1cc(C2CCCN(S(=O)(=O)c3cccc(Cl)c3)C2)nn1C` (stereo not drawn) | - | 24.35 |
| 23 | `CC(C)N1CC[C@@](C)(O)[C@H](n2ccc(=O)[nH]c2=O)C1` | -11.23 | 7.023 |
| 24 | `COc1cc(I)c(Cl)cc1C(=O)N(C)CC(C)(C)O` | -62.65 | -27.13 |
| 25 | `CC1(C)COCCN1C(=O)CCc1nc(-c2ccc(Cl)cc2)no1` | -31.07 | -1.125 |
| 26 | `CC(C)N1CCCCC1CCn1cnc2cc(C(F)(F)F)ccc2c1=O` (stereo not drawn) | -29.71 | - |
| 27 | `O=C(CSCc1ccncc1)NCc1csc(Br)c1` | - | 1.503 |
| 28 | `Cc1nnc(NCc2ccc(SC(F)F)cc2)o1` | -49.77 | -3.472 |
| 29 | `CC(C)NC(=O)c1cc(Br)c2c(c1)OCCO2` | 0.002929 | 8.591 |
| 30 | `O=C(O)C(F)(F)F.O=C(O)C(F)(F)F.[H][C@@]12CCN(Cc3cccc(C#N)c3)[C@@]1([H])CC(=O)N2Cc1ccncc1` | -99.59 | -41.76 |
| 31 | `Cc1ccc(C(=O)NS(=O)(=O)c2ccccc2Cl)c(=O)[nH]1` | -21.15 | 6.86 |
| 32 | `O=C(O)C(F)(F)F.O=C(O)C(F)(F)F.[H][C@@]12CC(COc3ccccn3)C[C@@]1([H])N(CC1CCOCC1)CCO2` (stereo partly drawn) | -46.45 | 18.19 |
| 33 | `N#CCCN(Cc1ccco1)C(=O)Cc1ccc(-n2cnnn2)cc1` | -25.39 | 0.4823 |
| 34 | `CC1(c2ncc(CN3CCN(c4ncccn4)CC3)cn2)CCCCO1` (stereo not drawn) | 8.627 | 3.84 |
| 35 | `Cc1n[nH]c(C)c1CNCC(O)c1cccc(Cl)c1.Cl` (stereo not drawn) | -16.11 | 1.233 |
| 36 | `O=C(O)CN1CCc2onc(C(c3ccccc3)c3ccccc3)c2C1` | -26.42 | 4.806 |
| 37 | `CC(C(=O)N1CCOCC1)n1cc(Br)cn1` (stereo not drawn) | -9.094 | 14.21 |
| 38 | `N[C@@H]1c2ccccc2C2(CCN(C(=O)c3cncc(Cl)c3)CC2)[C@H]1O` | -13.63 | 0.7856 |
| 39 | `O=C(O)C(F)(F)F.O=C(c1cscn1)N1CCc2c(COCC3CC3)cncc2C1` | -26.29 | 8.378 |
| 40 | `[H][C@]12CC=C(CN3CCCn4nc(CCC(=O)O)cc4C3)[C@]([H])(C1)C2(C)C` | -6.389 | 2.804 |
| 41 | `CN(C)CCOCc1cncc2c1CCN(C(=O)C1CCOCC1)C2.O=C(O)C(F)(F)F.O=C(O)C(F)(F)F` | -45.49 | 24.39 |
| 42 | `O=C(NC1CC1)C(c1ccccc1)N1CCn2c(nnc2C2CC2)C1` (stereo not drawn) | -2.992 | 3.443 |
| 43 | `[H][C@@]12C[C@H](C(=O)N3CCOCC3)[C@@]([H])(CN(c3ncc(F)cn3)C1)O2` | -8.198 | -9.706 |
| 44 | `CC(=O)c1ccc(N2CCCC(CO)(CCOc3ccccc3)C2)nc1` (stereo not drawn) | 71.93 | -26.84 |
| 45 | `Cc1cc(C)c2c(N3CCC(C(=O)N4CCCC4)CC3)ncnc2n1` | -37.69 | 8.913 |
| 46 | `CN(C)Cc1nc2c(o1)CN(C(=O)c1ccncc1F)C2` | -7.232 | 12.03 |
| 47 | `COc1c(C)cnc(CN2CCn3c(nnc3C3CC3)C2)c1C` | -46.45 | 7.285 |
| 48 | `Cn1cc(CNCCOc2ccc(F)c(F)c2)c(-c2cccnc2)n1` | 17.1 | 8.028 |
| 49 | `c1cnc2[nH]c(C3CCCC3)c(CN3CCCCC3)c2c1` | 0.06839 | -9.34 |
| 50 | `CCC(CO)N(C/C(C)=C/c1ccco1)Cc1ccsc1` (stereo not drawn) | -8.295 | -13.87 |
| 51 | `Cn1c(Cn2ccnc2)nnc1C1CCCN(C2CCCCC2)C1` (stereo not drawn) | -5.129 | 1.385 |
| 52 | `Cn1cccc1-c1cc(C(=O)N2CCCC2c2nccs2)[nH]n1` (stereo not drawn) | -5.004 | -8.021 |
| 53 | `Cc1ncsc1CCC(=O)NCc1cc2n(n1)CCN(C(=O)N(C)C)C2` | -30.51 | 9.596 |
| 54 | `Cc1ccc(S(C)(=O)=O)cc1C(=O)N(C)Cc1ccco1` | -43.71 | 0.2528 |
| 55 | `CN1CCN(c2ccc(CO)cc2F)CC1` | - | 5.274 |
| 56 | `CC(C)C[C@H](NC(=O)Cc1csc(-c2cccc(Cl)c2)n1)C(=O)O` | - | 27.63 |
| 57 | `COC(=O)c1cccn1C1CCN(C(=O)c2cn[nH]c2C)CC1` | 26.24 | 3.6 |
| 58 | `Cc1c(Cl)cc(C(=O)N(CCO)Cc2nccn2C)cc1Cl` | -2.184 | -3.401 |
| 59 | `COCC1CN(Cc2ccc(C)o2)Cc2cnn(CC3CCOCC3)c21.O=C(O)C(F)(F)F.O=C(O)C(F)(F)F` (stereo not drawn) | -14.79 | -4.28 |
| 60 | `CNc1nc(CNC(=O)Nc2ccc(OC)cc2C)cs1` | 4.339 | 6.152 |
| 61 | `CCc1ccc(-n2c(=O)[nH]c3nc(N4CCSCC4)ncc3c2=O)cc1` | 25.36 | 1.056 |
| 62 | `Cc1ccc(CCNC(=O)c2cccnc2)o1` | -165.5 | 5.733 |
| 63 | `CCCN1CCCn2nc(CNC(=O)CC(C)n3ccnc3C)cc2C1` (stereo not drawn) | -20.88 | -13.92 |
| 64 | `Cc1cccc(-c2ncc(CNC(C)CO)cn2)c1` (stereo not drawn) | -142.9 | 0.4327 |
| 65 | `COC(=O)c1sccc1S(=O)(=O)N1CCC(Oc2ncccc2Cl)CC1` | -70.4 | 0.8758 |
| 66 | `O=C(O)C(F)(F)F.[H][C@@]12CCNC[C@]1(C(=O)NCc1cnc(C)cn1)CCO2` | -63.23 | -41.27 |
| 67 | `N#Cc1cccc(S(=O)(=O)NC(=O)COC2CCCC2)c1` | 10.27 | 0.2118 |
| 68 | `O=C(c1ncoc1-c1ccco1)N1CCCN(c2ncccn2)CC1` | 3.95 | 6.483 |
| 69 | `COCCN(Cc1ccoc1)C(=O)c1cccnc1SC` | -39.88 | -1.22 |
| 70 | `COc1ccc(C(C(=O)O)N(C)CCN2CCCC2)cc1F` (stereo not drawn) | -28.73 | -1.162 |
| 71 | `CCOCCNC(=O)c1cccnc1N1CCCC1c1ccccn1` (stereo not drawn) | 1.774 | 20.3 |
| 72 | `Cc1ccc(N2CCN(C3CCc4ccccc4C3)CC2)nn1` (stereo not drawn) | 19.69 | -2.414 |
| 73 | `CN(C)c1ccc(C(CNS(=O)(=O)c2cccs2)N2CCCC2)cc1` (stereo not drawn) | -11.49 | 4.79 |
| 74 | `O=C(NCc1cccs1)C1CN(C(=O)c2cccs2)CC12CCOCC2` (stereo not drawn) | 4.619 | 4.915 |
| 75 | `COCCn1c(=O)n(Cc2cccc(F)c2F)c2cc(C(=O)O)ccc21` | -32.09 | 3.04 |
| 76 | `CCn1cnnc1CNC(=O)N1CCN(c2cccc(C)c2)CC1` | -16.58 | 4.499 |
| 77 | `Cc1ccc(CNC(=O)Cc2c(C)nc3c(c2C)c(=O)[nH]n3C)cc1` | - | -1.553 |

Source: ChEMBL document CHEMBL3988442, “University of Dundee, Small-Polar-MMV Screening Library” (2021).